Measurements reported in PubChem BioAssay AID1259405 (NCATS, 2018)

- Assay: 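Knock-downs that lift recombinant protein yield in hamster ovary cells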 (primary screen)
- System: Chinese hamster CHO-K1 ovary cells with stable secreted eGFP expression
- Reagents: single siRNA against mouse genes, 0.8 pmol siRNA per well (2 µl of 400 nM stock)
- Timing: 3 days
- Measurement: 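Percent of the per-plate non-targeting control median for intracellular GFP per well by laser scanning cytometry and for cell viability by ATP luminescence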
- Scale: GFP, % of control: higher = more GFP per well, higher productivity; viability (ATP), % of control: higher = more viable cells (more ATP)
- Hit rule: 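a knock-down is called active if GFP reaches 120% or more of non-targeting control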
The deposit covers about 50,000 reagents; below is a part drawn at random. In the full data, about 4,000 (8%) were called active. 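Mouse siRNA library applied to hamster cells; one well for each siRNA.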 The numbers tell different reagents against one gene apart. No sequences are given here.

| Target gene | reagent | GFP, % of control | viability (ATP), % of control | Call |
| --- | --- | --- | --- | --- |
| Npr1 | 1 | 65.1 | 93.3 | inactive |
| Npr1 | 2 | 85.1 | 83.5 | inactive |
| Npr1 | 3 | 80.6 | 65.3 | inactive |
| Klhl22 | 1 | 79.5 | 60.7 | inactive |
| Klhl22 | 2 | 114 | 85.7 | inactive |
| Klhl22 | 3 | 94.2 | 89.1 | inactive |
| Cimip2c | 1 | 110 | 76.5 | inactive |
| Cimip2c | 2 | 71 | 75.4 | inactive |
| Cimip2c | 3 | 151 | 45.1 | active |
| Cd2bp2 | 1 | 94.6 | 108 | inactive |
| Cd2bp2 | 2 | 71.6 | 97.2 | inactive |
| Cd2bp2 | 3 | 83 | 91.2 | inactive |
| Rab6a | 1 | 3.58 | 16.2 | inactive |
| Rab6a | 2 | 114 | 78.6 | inactive |
| Rab6a | 3 | 84.8 | 70.7 | inactive |
| Slc16a13 | 1 | 42.2 | 40.3 | inactive |
| Slc16a13 | 2 | 31.1 | 59.3 | inactive |
| Slc16a13 | 3 | 65.7 | 76.3 | inactive |
| Ces4a | 1 | 58 | 63.3 | inactive |
| Ces4a | 2 | 82.3 | 103 | inactive |
| Ces4a | 3 | 46.1 | 52.5 | inactive |
| Lage3 | 1 | 82.6 | 90.2 | inactive |
| Lage3 | 2 | 38.8 | 44.6 | inactive |
| Lage3 | 3 | 152 | 107 | active |
| Pias3 | 1 | 121 | 98.5 | active |
| Pias3 | 2 | 59.8 | 59.7 | inactive |
| Pias3 | 3 | 156 | 145 | active |
| Adam9 | 1 | 102 | 103 | inactive |
| Adam9 | 2 | 56.9 | 75.5 | inactive |
| Adam9 | 3 | 78.2 | 84.3 | inactive |
| Astn1 | 1 | 112 | 103 | inactive |
| Astn1 | 2 | 63.6 | 101 | inactive |
| Astn1 | 3 | 25.4 | 38.8 | inactive |
| Mbd3 | 1 | 67.9 | 79.8 | inactive |
| Mbd3 | 2 | 52.1 | 53.6 | inactive |
| Mbd3 | 3 | 51.7 | 52.4 | inactive |
| Trappc3 | 1 | 60.5 | 68.7 | inactive |
| Trappc3 | 2 | 136 | 93.4 | active |
| Trappc3 | 3 | 100 | 72.4 | inactive |
| Nrf1 | 1 | 14.7 | 59.6 | inactive |
| Nrf1 | 2 | 70.4 | 82.2 | inactive |
| Nrf1 | 3 | 68.9 | 101 | inactive |
| Antxrl | 1 | 59.7 | 32.8 | inactive |
| Antxrl | 2 | 79.5 | 62.3 | inactive |
| Antxrl | 3 | 88.1 | 80.4 | inactive |
| Cltb | 1 | 101 | 129 | inactive |
| Cltb | 2 | 55.2 | 66.3 | inactive |
| Slain2 | 1 | 53.5 | 73.6 | inactive |
| Slain2 | 2 | 48.6 | 58.8 | inactive |
| Slain2 | 3 | 102 | 107 | inactive |
| Atp7b | 1 | 32.5 | 88.2 | inactive |
| Atp7b | 2 | 59.5 | 71 | inactive |
| Atp7b | 3 | 77.3 | 90.8 | inactive |
| Trim34a | 1 | 48.4 | 53.6 | inactive |
| Trim34a | 2 | 40 | 78.2 | inactive |
| Trim34a | 3 | 46.5 | 61.7 | inactive |
| Tle4 | 1 | 136 | 95.9 | active |
| Tle4 | 2 | 68.1 | 67.8 | inactive |
| Tle4 | 3 | 90.1 | 86.2 | inactive |

5 neighbouring reagents from above:
| Target gene | reagent | GFP, % of control | viability (ATP), % of control | Call |
| --- | --- | --- | --- | --- |
| Ces4a | 2 | 82.3 | 103 | inactive |
| Ces4a | 3 | 46.1 | 52.5 | inactive |
| Lage3 | 1 | 82.6 | 90.2 | inactive |
| Lage3 | 2 | 38.8 | 44.6 | inactive |
| Lage3 | 3 | 152 | 107 | active |
